Assay [1] deals with T1, myc-F-box only protein 31 (FBXO31) (UniProt Q5XUX0).
T1 sequence: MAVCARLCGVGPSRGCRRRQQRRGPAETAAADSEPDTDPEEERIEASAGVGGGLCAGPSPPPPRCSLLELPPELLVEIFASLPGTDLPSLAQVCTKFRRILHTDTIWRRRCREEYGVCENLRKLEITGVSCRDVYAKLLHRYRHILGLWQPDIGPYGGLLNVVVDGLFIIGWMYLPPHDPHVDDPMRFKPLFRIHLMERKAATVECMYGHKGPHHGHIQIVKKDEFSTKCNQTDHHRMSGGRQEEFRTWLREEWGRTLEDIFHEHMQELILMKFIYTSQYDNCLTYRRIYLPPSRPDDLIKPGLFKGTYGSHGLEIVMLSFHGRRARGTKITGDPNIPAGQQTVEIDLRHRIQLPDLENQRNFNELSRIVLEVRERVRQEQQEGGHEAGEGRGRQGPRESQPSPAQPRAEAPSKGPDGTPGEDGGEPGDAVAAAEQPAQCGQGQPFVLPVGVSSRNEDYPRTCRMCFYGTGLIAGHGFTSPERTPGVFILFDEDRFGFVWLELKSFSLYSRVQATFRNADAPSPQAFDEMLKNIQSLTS
The assay is described as follows: co-IP; hBMSCs cotransfected with FLAG-β-catenin and myc-FBXO31 or myc-FBXO31ΔF for 48 h, 10 μM MG132 for 6 h; nondenaturing lysis buffer (20 mM Tris-HCl pH 8.0, 137 mM NaCl, 0.5% Nonidet P40, 2 mM EDTA); IP with anti-myc antibodies overnight at 4 °C, protein A/G agarose beads, immunoblot. A general note: A western blot detects proteins with antibodies after separation by electrophoresis.

Sequences of proteins named here, by UniProt entry; tags and fusion partners are left off.
UniProt P63208: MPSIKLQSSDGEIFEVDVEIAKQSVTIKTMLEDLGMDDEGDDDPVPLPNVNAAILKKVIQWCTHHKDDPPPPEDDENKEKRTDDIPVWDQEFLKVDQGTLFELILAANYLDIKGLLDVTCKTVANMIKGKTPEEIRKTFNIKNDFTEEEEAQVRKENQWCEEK
UniProt P35222: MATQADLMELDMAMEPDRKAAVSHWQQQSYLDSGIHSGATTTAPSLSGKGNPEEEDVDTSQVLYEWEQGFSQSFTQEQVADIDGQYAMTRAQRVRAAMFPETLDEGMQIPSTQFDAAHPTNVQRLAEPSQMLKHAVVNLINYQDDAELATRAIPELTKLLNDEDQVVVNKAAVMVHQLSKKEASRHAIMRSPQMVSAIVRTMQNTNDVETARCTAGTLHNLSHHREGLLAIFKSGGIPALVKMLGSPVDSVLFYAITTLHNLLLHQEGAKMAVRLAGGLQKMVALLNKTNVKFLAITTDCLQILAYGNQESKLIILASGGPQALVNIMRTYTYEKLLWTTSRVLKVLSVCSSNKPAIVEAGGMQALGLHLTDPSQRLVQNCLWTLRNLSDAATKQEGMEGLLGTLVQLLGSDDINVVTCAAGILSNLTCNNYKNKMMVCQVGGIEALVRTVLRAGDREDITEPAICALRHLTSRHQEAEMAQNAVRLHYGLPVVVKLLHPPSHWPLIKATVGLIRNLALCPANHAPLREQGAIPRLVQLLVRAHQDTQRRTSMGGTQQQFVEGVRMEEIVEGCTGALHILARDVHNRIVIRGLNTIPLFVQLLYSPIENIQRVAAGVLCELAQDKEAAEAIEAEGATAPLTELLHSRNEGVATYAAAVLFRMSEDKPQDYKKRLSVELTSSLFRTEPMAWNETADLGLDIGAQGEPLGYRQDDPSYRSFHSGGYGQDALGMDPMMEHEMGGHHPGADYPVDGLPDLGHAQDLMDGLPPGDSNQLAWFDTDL

Assay [2] deals with T1, myc-F-box only protein 31 (FBXO31). The assay is described as above. This is another data set of the same source.

Like-named read-outs stand apart in the source and are kept apart here. These are yes or no findings as the source states them, for the method shown. Binding seen in cells or lysates may run through a third protein. Some binding calls cover weakened binding; strength is not graded here. Tags and fused reporters may be left off the sequences shown.

Consider “Skp1, endogenous in hBMSCs (from UniProt P63208 1-163)”, for which the binding entry in assay [1] was “binds”.
Still for that read-out and setting: in the case of “FLAG-β-catenin (from UniProt P35222 1-781)” it was “binds”.

B1: ubiquitin-specific protease 53 (USP53), in hBMSCs of the anti-myc co-IP (protein, UniProt Q70EK8 1-1073)
chain: MAWVKFLRKPGGNLGKVYQPGSMLSLAPTKGLLNEPGQNSCFLNSAVQVLWQLDIFRRSLRVLTGHVCQGDACIFCALKTIFAQFQHSREKALPSDNIRHALAESFKDEQRFQLGLMDDAAECFENMLERIHFHIVPSRDADMCTSKSCITHQKFAMTLYEQCVCRSCGASSDPLPFTEFVRYISTTALCNEVERMLERHERFKPEMFAELLQAANTTDDYRKCPSNCGQKIKIRRVLMNCPEIVTIGLVWDSEHSDLTEAVVRNLATHLYLPGLFYRVTDENAKNSELNLVGMICYTSQHYCAFAFHTKSSKWVFFDDANVKEIGTRWKDVVSKCIRCHFQPLLLFYANPDGTAVSTEDALRQVISWSHYKSVAENMGCEKPVIHKSDNLKENGFGDQAKQRENQKFPTDNISSSNRSHSHTGVGKGPAKLSHIDQREKIKDISRECALKAIEQKNLLSSQRKDLEKGQRKDLGRHRDLVDEDLSHFQSGSPPAPNGFKQHGNPHLYHSQGKGSYKHDRVVPQSRASAQIISSSKSQILAPGEKITGKVKSDNGTGYDTDSSQDSRDRGNSCDSSSKSRNRGWKPMRETLNVDSIFSESEKRQHSPRHKPNISNKPKSSKDPSFSNWPKENPKQKGLMTIYEDEMKQEIGSRSSLESNGKGAEKNKGLVEGKVHGDNWQMQRTESGYESSDHISNGSTNLDSPVIDGNGTVMDISGVKETVCFSDQITTSNLNKERGDCTSLQSQHHLEGFRKELRNLEAGYKSHEFHPESHLQIKNHLIKRSHVHEDNGKLFPSSSLQIPKDHNAREHIHQSDEQKLEKPNECKFSEWLNIENSERTGLPFHVDNSASGKRVNSNEPSSLWSSHLRTVGLKPETAPLIQQQNIMDQCYFENSLSTECIIRSASRSDGCQMPKLFCQNLPPPLPPKKYAITSVPQSEKSESTPDVKLTEVFKATSHLPKHSLSTASEPSLEVSTHMNDERHKETFQVRECFGNTPNCPSSSSTNDFQANSGAIDAFCQPELDSISTCPNETVSLTTYFSVDSCMTDTYRLKYHQRPKLSFPESSGFCNNSLS
As for B1, the binding result in assay [2] is “binds”.

The record behind these values is paper PMC7933275.
